No constants are given. Whether binding was seen depends on the method and setting.
B1: TDI-Y-004 (antibody, human IgG1, kappa, V domains shown)
VH: QVQLVQSGAEVKKPGSSVKVSCKASGYTFTNYYIHWVRQAPGQGLEWMGKIGPGSGSPYYQGMFKDRVTITADESTSTAYMELSSLRSEDTAVYYCARWLLPFDYWGQGTLVTVSS
VL: EIVLTQSPGTLSLSPGERATLSCRASSSVNYMHWYQQKPGQAPRLLIYATSILASGIPDRFSGSGSGTDYTLTISRLEPEDFAVYYCQQFSSDPLTFGGGTKVEIKR
B2: TDI-Y-005 (antibody, human IgG1, kappa, V domains shown)
VH: EVQMVESGGGLVQPGGSLRLSCAAPGFIFSSYNMNWVRQAPGKGLEWVSYISSSSSTTYYADSVKGRFTISRDNAKNSLYLQMNSLRDEDTAVYYCASLYSGYDYYYYYGMDVWGQGTTVTVSS
VL: DIVMTQTPLSSPVSLGQPASISCRSSQSLVHSDGNTYLSWLQQRPGQPPRVLIYKISKRFSGVPDRFSGSGAGTDFTLKISRVEAEDVGVYYCMQATQFPFTFGPGTKVDIKR

Protein sequences, listed by entry. Tags and fused reporters are not part of them. Lines headed by an entry give the natural chain unless they say otherwise; changes in a name come on top.
UniProt O94856: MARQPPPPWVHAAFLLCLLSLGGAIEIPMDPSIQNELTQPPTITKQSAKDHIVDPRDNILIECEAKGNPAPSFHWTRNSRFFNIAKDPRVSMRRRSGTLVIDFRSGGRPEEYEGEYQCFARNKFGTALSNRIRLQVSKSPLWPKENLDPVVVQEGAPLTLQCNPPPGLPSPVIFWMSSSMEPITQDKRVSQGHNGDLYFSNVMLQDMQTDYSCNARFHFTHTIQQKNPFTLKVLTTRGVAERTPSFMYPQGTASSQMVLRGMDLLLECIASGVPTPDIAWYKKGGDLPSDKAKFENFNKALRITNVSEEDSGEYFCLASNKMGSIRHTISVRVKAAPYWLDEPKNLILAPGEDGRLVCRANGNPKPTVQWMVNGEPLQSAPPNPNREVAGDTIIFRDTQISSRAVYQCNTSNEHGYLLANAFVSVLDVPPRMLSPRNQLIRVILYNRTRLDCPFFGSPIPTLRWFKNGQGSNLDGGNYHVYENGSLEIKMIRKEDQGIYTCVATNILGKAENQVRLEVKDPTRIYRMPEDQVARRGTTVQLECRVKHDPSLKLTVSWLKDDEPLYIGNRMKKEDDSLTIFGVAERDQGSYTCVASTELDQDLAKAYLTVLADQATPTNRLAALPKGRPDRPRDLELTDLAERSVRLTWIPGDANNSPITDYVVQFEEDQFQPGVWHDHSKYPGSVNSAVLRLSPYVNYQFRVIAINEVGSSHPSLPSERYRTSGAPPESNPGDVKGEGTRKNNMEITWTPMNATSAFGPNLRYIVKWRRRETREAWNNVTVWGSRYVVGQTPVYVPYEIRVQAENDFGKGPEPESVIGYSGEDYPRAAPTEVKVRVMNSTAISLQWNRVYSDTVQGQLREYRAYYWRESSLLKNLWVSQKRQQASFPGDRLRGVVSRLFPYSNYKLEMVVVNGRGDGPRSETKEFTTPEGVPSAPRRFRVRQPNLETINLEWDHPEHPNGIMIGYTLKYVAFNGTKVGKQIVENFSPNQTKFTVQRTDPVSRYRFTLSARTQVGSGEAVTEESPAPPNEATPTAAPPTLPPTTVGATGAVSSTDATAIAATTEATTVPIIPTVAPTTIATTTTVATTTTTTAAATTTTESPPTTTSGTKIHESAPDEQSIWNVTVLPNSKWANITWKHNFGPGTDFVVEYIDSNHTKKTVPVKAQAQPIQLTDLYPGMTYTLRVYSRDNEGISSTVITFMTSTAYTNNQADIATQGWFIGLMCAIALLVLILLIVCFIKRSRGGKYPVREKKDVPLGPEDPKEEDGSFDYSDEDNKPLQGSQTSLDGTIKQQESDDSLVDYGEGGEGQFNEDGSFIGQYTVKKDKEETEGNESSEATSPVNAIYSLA

Target: human Neurofascin (residues 25-1039 with a C-terminal 10xHis tag) (human) (UniProt O94856)
Experiment: ELISA, plates coated with human Neurofascin

Row | Binder | binding
1 | B1 | no binding (tested: 1 µM)
2 | B2 | no binding (tested: 1 µM)
